For at least one compound, name, drawing or mass did not settle the structure.
Assays:
5-HT2A receptor = target: T1, 5-HT2A receptor (Homo sapiens, UniProt P28223); experiment: In-vitro competitive binding to 5-HT2A receptor, [3H]-Ketanserin, transformed HEK293 cells; conditions: compared with Aripiprazole
T1 construct: expressed in transfected cells; host or cells: HEK293
Description: All test samples were dissolved in DMSO at a concentration of 0.01 mol/L, and then diluted with deionized water to 100 umol/L.
HEK293 cells were transformed with plasmid carriers containing the gene coding for 5-HT2A receptor protein by using calcium phosphate transformation. Stable cell strains which could stably express 5-HT2A receptor protein were obtained from the transformed cells by cultivating in a culture media containing G418, selecting monoclones of the cell and performing radioactive ligand binding assay.
Beckman LS 6500 Scintillation Counter.
HEK-293 cells were infected with recombined viruses containing various genes described above. […] Cells were centrifuged at 1000 rpm for 5 min Culture media was discarded, and cell bodies were collected and stored at −20° C. in a freezer. The cell bodies were resuspended with Tris-HCl reaction buffer during assay.
After incubation at 37° C. for 15 min, the reaction mixture was immediately transferred into ice bath to terminate the reaction; the reaction mixture was quickly filtered through GF/C glass cellulose filter on a Millipore cell sample collector, and was then washed with eluting solution (50 mM Tris-HCl, PH 7.7, 3 ml×3) and dried in a microwave for 8-9 min. […] Radioactivity was determined by counting Inhibition percentage of each compound on isotope ligand binding was calculated according to the following equation: […]

Protein sequences, listed by entry. Tags and fused reporters are not part of them.
UniProt P28223, whole entry: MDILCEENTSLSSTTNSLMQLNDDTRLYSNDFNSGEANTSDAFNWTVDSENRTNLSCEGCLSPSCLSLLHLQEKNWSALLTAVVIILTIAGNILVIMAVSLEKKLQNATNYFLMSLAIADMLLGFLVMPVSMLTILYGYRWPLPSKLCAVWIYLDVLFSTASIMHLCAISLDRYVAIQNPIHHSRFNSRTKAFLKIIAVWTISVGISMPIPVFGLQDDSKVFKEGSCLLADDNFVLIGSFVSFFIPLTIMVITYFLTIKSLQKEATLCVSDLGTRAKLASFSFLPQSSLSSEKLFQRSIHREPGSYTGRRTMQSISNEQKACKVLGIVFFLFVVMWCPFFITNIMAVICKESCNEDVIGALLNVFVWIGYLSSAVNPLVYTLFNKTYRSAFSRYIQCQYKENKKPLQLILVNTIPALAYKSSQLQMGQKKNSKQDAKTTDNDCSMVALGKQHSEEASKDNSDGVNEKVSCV
UniProt P31652, whole entry: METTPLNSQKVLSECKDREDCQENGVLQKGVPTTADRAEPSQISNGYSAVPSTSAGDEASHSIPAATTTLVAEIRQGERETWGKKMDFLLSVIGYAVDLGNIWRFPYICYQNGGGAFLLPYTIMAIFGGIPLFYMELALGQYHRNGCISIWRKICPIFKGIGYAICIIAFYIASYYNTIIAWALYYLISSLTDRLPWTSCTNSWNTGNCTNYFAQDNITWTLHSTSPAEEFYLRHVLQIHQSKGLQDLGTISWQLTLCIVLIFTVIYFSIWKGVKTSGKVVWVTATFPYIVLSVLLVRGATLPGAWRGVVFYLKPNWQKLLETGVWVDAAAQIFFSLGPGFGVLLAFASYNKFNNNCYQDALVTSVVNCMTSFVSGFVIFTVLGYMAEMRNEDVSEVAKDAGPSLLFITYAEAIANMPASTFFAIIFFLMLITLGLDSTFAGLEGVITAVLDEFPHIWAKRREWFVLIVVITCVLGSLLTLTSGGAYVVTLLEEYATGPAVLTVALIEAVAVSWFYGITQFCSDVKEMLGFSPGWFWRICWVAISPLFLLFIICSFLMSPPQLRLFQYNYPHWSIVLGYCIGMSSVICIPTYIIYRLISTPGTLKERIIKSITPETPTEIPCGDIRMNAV

[1] = target: T2, 5-HT reuptake by brain synapses (Rattus norvegicus, UniProt P31652); experiment: [3H]5-HT reuptake test in rat brain synapses; assay type: biochemical; conditions: at 10 μmol/L, compared with Dutoxetine
T2 construct: forehead cortex was obtained for [^3H]5-HT, [^3H]NA reuptake test; from tissue; host or cells: rat (SD) forebrain cortex synaptosomes
Description: The method was as follows:
Male SD rats were killed by cervical dislocation, heads were immediately cut and brains were obtained and put on ice, related brain tissues were dissected (forehead cortex was obtained for [^3H]5-HT, [^3H]NA reuptake test, corpus striatum was obtained for [^3H]DA reuptake).
After the sample was weighed, 10 folds (V/W) ice cold 0.32 mol/L sucrose solution was added.
According to [a. […] 5-HT was added and after incubation in water bath at 37° C. for 10 min, the reaction mixture was immediately taken out of the water bath and 2 ml ice cold 150 mmol/L Tris-HCl was added to terminate the reaction. The sample was collected on a round glass fiber filter by vacuum filtration and washed three times with 3 ml ice cold Tris-HCl buffer. The filter membrane was removed, dried in a far-infrared oven for 15 min, then transferred into a EP tube, in which 1.5 ml scintillation fluid was added, left overnight and detected by a scintillation counter. The test sample was not added into solvent controlled overall binding tube or non-specific binding tube. 50 μl solvent was added into the overall binding tube, and in [^3H] 5-HT reuptake test, 600 μmol/L cocaine was added into the non-specific binding tube.

Fc1ccc2c(C3CCN(CCCCn4cnc5ccc(F)cc54)CC3)noc2c1 [III-2, 6-fluoro-3-(1-(4-(6-fluoro-1H-benzo[d]imidazol-1-yl)butyl)piperidin-4-yl)benzo[d]isoxazole]
inhibitory activity on 5-HT2A (in words) (5-HT2A receptor): potent inhibitory activities
inhibitory activity on 5-HT reuptake (in words) [1]: potent inhibitory activities

From patent US20110306638A1, “BENZISOXAZOLE PIPERIDINYL DERIVATIVES, PHARMACEUTICAL COMPOSITIONS COMPRISING THE DERIVATIVES AND THEIR USE” (NHWA PHARMA. CORPORATION, priority 2008, published 2011)
